No constants are given. Whether binding was seen depends on the method and setting. For some assays here: Sequences can lack the tags named with a protein. Values belong to the binder of their own block, whether it stands above or below them.
How the values were obtained:
[1] = target: T1, β-catenin unphosphorylated at serine 37 (S37) and threonine 41 (T41) (Active β-Catenin, ABC) (human (endogenous in SW480)), P35222; test: SEC; detergent-free cytosolic fraction of SW480 cells (control or α-catenin shRNA) on Sephacryl S-300, 30 mM Hepes pH 7.5, 150 mM KCl; fractions TCA precipitated and immunoblotted; details: remark: other sources report otherwise
T1 chain: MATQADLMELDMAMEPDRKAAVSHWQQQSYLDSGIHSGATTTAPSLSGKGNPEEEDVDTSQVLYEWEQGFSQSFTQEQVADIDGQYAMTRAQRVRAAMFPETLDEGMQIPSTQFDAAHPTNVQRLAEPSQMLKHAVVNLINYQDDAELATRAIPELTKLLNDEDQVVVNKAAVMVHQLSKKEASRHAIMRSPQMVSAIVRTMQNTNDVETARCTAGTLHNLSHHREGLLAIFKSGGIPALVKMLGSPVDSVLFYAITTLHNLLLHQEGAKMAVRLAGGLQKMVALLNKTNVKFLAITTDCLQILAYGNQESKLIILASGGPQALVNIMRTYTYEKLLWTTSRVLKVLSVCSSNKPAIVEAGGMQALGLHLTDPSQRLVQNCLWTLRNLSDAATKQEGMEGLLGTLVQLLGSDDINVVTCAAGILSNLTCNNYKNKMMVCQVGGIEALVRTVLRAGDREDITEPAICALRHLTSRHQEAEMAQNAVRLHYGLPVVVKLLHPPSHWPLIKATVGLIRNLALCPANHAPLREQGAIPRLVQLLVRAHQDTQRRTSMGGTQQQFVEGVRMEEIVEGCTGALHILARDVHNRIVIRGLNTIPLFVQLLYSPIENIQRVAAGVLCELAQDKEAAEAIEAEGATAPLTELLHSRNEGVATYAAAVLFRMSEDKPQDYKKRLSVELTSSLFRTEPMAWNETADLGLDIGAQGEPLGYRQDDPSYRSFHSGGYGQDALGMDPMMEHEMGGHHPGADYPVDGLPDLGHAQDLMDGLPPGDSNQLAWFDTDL

[2] = target: T2, Histidine and 6-myc tagged β-catenin, P35222; test: SEC; ~2 mg purified His/6-myc β-catenin diluted in column equilibration buffer, sizing column; fractions blotted with anti-myc; both purified; details: remark: other sources report otherwise
T2 chain: T1 chain

- binding [1]: no binding
B1: β-catenin unphosphorylated at serine 37 (S37) and threonine 41 (T41) (Active β-Catenin, ABC), P35222 1-781 (protein)
chain: T1 chain
modifications: here or on the partner: unphosphorylated at S37 and T41 (form recognised by monoclonal antibody 8E7); unphosphorylated at S37 and T41 (form recognised by monoclonal antibody 8E7)

- binding [2]: no binding
B2: Histidine and 6-myc tagged β-catenin, P35222 1-781 (protein)
chain: T1 chain
